From PubChem BioAssay record AID1159506 (NCATS, 2015).

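Luminescence from an EWS-FLI1 target-promoter (NR0B1) reporter, set against a CMV-promoter reporter, two days after silencing single genes in TC32 Ewing sarcoma cells.
Each siRNA was applied at 20 nM.
A z-score of the log NR0B1-over-CMV signal, less the median of siRNAs with the same seed; more negative means a stronger specific loss of the NR0B1 reporter.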

This is part of the screen; most of the strongest results are not listed here.
Sequences are the guide (antisense) strand, without overhang.

| strand | gene | seed-corrected z-score |
|---|---|---|
| `AUAAUUACUUGAUCUCUUC` | TDP2 | -0.402 |
| `UAUUUUUAAGUUACAUCUC` | TMEM167A | 0.436 |
| `AAUCUCAUCACGAUGAGUC` | SLC7A9 | 0.4963 |
| `UUUUAGACUGGGAAUGGUC` | DNMBP | 0.2036 |
| `AAAGUGAUGACGAUGAGAG` | SLC12A3 | 0.4002 |
| `UGUGAGCCUUUGUCCAUGC` | SMIM10L2A | 0.06234 |
| `UCCAUAGUCACCUCCUUCC` | PLA2G4D | 1.114 |
| `UACAUAGUCAGGAAACAUU` | UBTFL7 | 0.08128 |
| `AAACUAGGAGGAUUAAGUC` | ESRP2 | 0.7829 |
| `UGUGAUAUCUGUUCCUAGC` | PDE6H | 0.5949 |
| `UAUCCGCAUAUUCACUUGC` | SNRPE | -0.7212 |
| `AGAUGUAUAAGCAAAGGAC` | ZNF586 | -1.38 |
| `AAACGUAGAAUGUCAAGCC` | PPP1R3A | 0.5476 |
| `UACUGGUUAUCUGUUCUCC` | TRMT1L | -0.5378 |
| `UUUGCGCUUAUUCAGGUCC` | GNAI2 | -0.4032 |
| `UCUGAUCCAAGCUUGGUUC` | ACAA2 | 0.1942 |
| `AACGGGCAGACUUAUGCCC` | HIST1H3C | 0.1244 |
| `AAUUAUACAAUCAUGUUCU` | CALCB | -0.7179 |
| `UUCUAUGCAAGUAAUUAGG` | PPP2R1B | 0.529 |
| `AACGAUGUCAUCAAUUCGC` | CCT3 | -0.5031 |
| `AAAGAGGACACUCAGGAAG` | CD164L2 | -0.1852 |
| `AUCCUUAUGCUCUUGACCC` | PROK2 | 0.2484 |
| `UAAUCUUGCAUGAUCCAGG` | MELK | 0.4571 |
| `UGUUUAUCUCGUGUACUGC` | FAM81B | -0.4062 |
| `UGAUGUGCUAGGAAGACCC` | PPM1D | 0.6374 |
| `UCGAAUACAAUCUAUAAGC` | HECTD1 | 0.8799 |
| `UUGACUAUAAUGUUGCUCC` | TGS1 | -0.1156 |
| `AUAAUUCACAGUUUUUGCC` | F10 | 0.1988 |
| `UAUGAGGUAGAGUAAAGCC` | RNFT1 | -0.2389 |
| `UCUUUUACACUCAUACUCC` | ERI2 | -0.9235 |
| `UUAUCCUUCGGACAGAUUC` | DNAJC11 | 0.138 |
| `UGUUGUUUCAACAACAAUC` | SPG7 | 0.1312 |
| `UUGUUGUAUAGACUGAACC` | DSC2 | 0.9654 |
| `UUAGUUCUCACGUCCACUG` | AIFM3 | -0.2217 |
| `AACCUAUCUACAGCAAUUG` | NPFFR2 | -0.1995 |
| `UUUCUCGUAAUUUCCAAUG` | APPBP2 | -0.2007 |
| `AAACUGAUUUUGUUCACCC` | DGKI | -0.3302 |
| `UACACGUUUCCAAACUUGC` | AURKB | 0.4951 |
| `UUUAUCAUAACAACAGAAC` | THEM4 | 1.166 |
| `UCUGUAUAUAAUAUCAUCC` | FAM126A | -0.06105 |
| `UAUGUACACGCAGUAGCCU` | SLC16A5 | -1.579 |
| `AAUGACAACACUGACAUGC` | OR8D2 | -0.3829 |
| `UUAUAUGUCUUAGAACUGC` | ERCC6L2 | 0.05724 |
| `UUACAGUAGACGUACCACC` | MRPL36 | 1.307 |
| `UUAAUGGAUGAGUCAUAUC` | PLCZ1 | 0.1076 |
| `AUUUCGUCCAGUUACUCUG` | NFAT5 | 0.1611 |
| `AGAGUUACCAAAUACAACA` | OR14C36 | -1.104 |
| `UCAUUAUACAGGAUCUUAU` | C1QTNF9B | 0.0005415 |
| `UUGGAAUAGAUUCGGAACC` | PLTP | -0.3613 |
| `AUAAUCUGCAUUGACGACC` | MEGF10 | 0.6455 |
| `UACCUUGAACAUGAAACCU` | BIN1 | 0.1266 |
| `AUAGCAUUCAAAGCAGUGC` | TTLL1 | 0.3355 |
| `UAGGAGGUAAAUUCCUUAC` | IGF2BP2-AS1 | -0.3499 |
| `ACAGGCAUAAUGUAAUGCG` | ANKRD22 | 0.04283 |
| `AUACUGAUACCUCUCCUGG` | TMEM106B | 0.3023 |
| `AUAGUGUCUCGAAGUAAUG` | NGLY1 | 1.119 |
| `AAAUAUACUGUGCUGUUUG` | OSTM1 | 1.264 |
| `AUCAUGUUCAUGAGCAUCC` | DCAF15 | -0.4005 |
| `UAAGUUCCUGUUGACGAGG` | KIAA0556 | 1.026 |
| `UCUGGGUCUAGUCUACUUG` | SYNDIG1L | -0.1614 |
| `AAUGGGAGGAUCUUUAUCC` | PDIA4 | -0.4896 |
| `UGUAUGAUGAGCCUUUACC` | SCAPER | 0.4019 |
| `UGAGUUUCCAGGCGGAGGA` | OTX1 | -1.162 |
| `AAGUGUAUAAAUUAAGUCC` | F3 | 0.9568 |
| `UCUGUUAGAAGGUAACUCC` | C12orf40 | 0.353 |
| `UAUCUGGUCGAUGUCCUCC` | APBA1 | 1.192 |
| `AAAGUCAAAGGUCAUGUGA` | LINGO4 | -0.5778 |
| `ACACUCUUCAAACUUGGUG` | EEF1DP3 | -0.3551 |
| `UGUUAUUGAAGAAUCAGAC` | ZCCHC14 | 1.101 |
| `UUCCAUACAAGGCUGUGCC` | PARP14 | -0.2524 |
| `UUCAUGACAAUAUCGACAC` | TPT1 | -0.5518 |
| `AGUAAUACCAUGUAGCAGC` | TG | -1.034 |
| `UUAUAAUUUGCAUUUGUGC` | UBLCP1 | 0.1226 |
| `AGGGUUUUCAGACUUCUUG` | WBSCR22 | 0.8966 |
| `UCAACUUCUACAACCUGGU` | CD52 | 0.2682 |
| `UUCCGGAUCAACUCCACCU` | PIAS4 | 0.9087 |
| `UCACUUUACAGCAAGAGUC` | ANKRD33B | -0.1991 |
| `UACGUGAAGAAUGAUUUCC` | PSMD13 | -0.5901 |
| `UUGGUAAUGAACAGACUCC` | DENR | 0.5389 |
| `AAUCUAGUCAUUUCACGCC` | ABCD3 | -0.5802 |

Repeated from the top, 9 entries:

Result for AUAAUUACUUGAUCUCUUC against TDP2 was seed-corrected z-score -0.402.
Result for UAUUUUUAAGUUACAUCUC against TMEM167A was seed-corrected z-score 0.436.
Result for AAUCUCAUCACGAUGAGUC against SLC7A9 was seed-corrected z-score 0.4963.
Result for UUUUAGACUGGGAAUGGUC against DNMBP was seed-corrected z-score 0.2036.
Result for AAAGUGAUGACGAUGAGAG against SLC12A3 was seed-corrected z-score 0.4002.
Result for UGUGAGCCUUUGUCCAUGC against SMIM10L2A was seed-corrected z-score 0.06234.
Result for UCCAUAGUCACCUCCUUCC against PLA2G4D was seed-corrected z-score 1.114.
Result for UACAUAGUCAGGAAACAUU against UBTFL7 was seed-corrected z-score 0.08128.
Result for AAACUAGGAGGAUUAAGUC against ESRP2 was seed-corrected z-score 0.7829.